7 molecules from US20250283871A1, “COMPOSITIONS AND METHODS FOR MODULATING THE INTERACTION BETWEEN SS18-SSX FUSION ONCOPROTEIN AND NUCLEOSOMES” (Dana-Farber Cancer Institute, Inc., priority 2020, published 2025) can be followed below.

The subject of this data set is BAF complex subunits and histone proteins. Put plainly: Mass spectrometry proteomics of purified HA-SS18 WT and HA-SS18-SSX1 complexes (Tables 5A-5E). Set-up: species or system human.
Setting [1] is: HA-SS18SSX1_CHR_peptides: proteins found in HA-SS18-SSX1 BAF complex purification from solubilized chromatin (CHR), HEK-293T.
Where [2] appears, read: HA-SS18SSX1_NE_peptides: protein co-purified with HA-SS18-SSX1 BAF complexes from soluble nuclear extract (NE), HEK-293T cells.
Where [3] appears, read: HA-SS18WT_NE_peptides: proteins co-purified with HA-SS18 WT from nuclear extract (NE), HEK-293T.
Where [4] appears, read: HA-SS18WT_CHR_peptides: protein identified in HA-SS18 WT BAF complex purification from nuclease-treated solubilized chromatin (CHR), HEK-293T.
Setting [5] is: HA-SS18SSX1 purification, NE (soluble nuclear extract) fraction, HEK-293T, peptides per identified protein.
Where [6] appears, read: HA-SS18WT_NE_peptides: HA-SS18 WT complexes purified from nuclear extract (NE), HEK-293T, label = protein identified (Gene Symbol).

B1: ZMYND8 (protein, UniProt Q9ULU4 1-1186, looked up)
MYND-type zinc …: MDISTRSKDPGSAERTAQKRKFPSPPHSSNGHSPQDTSTSPIKKKKKPGLLNSNNKEQSELRHGPFYYMKQPLTTDPVDVVPQDGRNDFYCWVCHREGQVLCCELCPRVYHAKCLRLTSEPEGDWFCPECEKITVAECIETQSKAMTMLTIEQLSYLLKFAIQKMKQPGTDAFQKPVPLEQHPDYAEYIFHPMDLCTLEKNAKKKMYGCTEAFLADAKWILHNCIIYNGGNHKLTQIAKVVIKICEHEMNEIEVCPECYLAACQKRDNWFCEPCSNPHPLVWAKLKGFPFWPAKALRDKDGQVDARFFGQHDRAWVPINNCYLMSKEIPFSVKKTKSIFNSAMQEMEVYVENIRRKFGVFNYSPFRTPYTPNSQYQMLLDPTNPSAGTAKIDKQEKVKLNFDMTASPKILMSKPVLSGGTGRRISLSDMPRSPMSTNSSVHTGSDVEQDAEKKATSSHFSASEESMDFLDKSTASPASTKTGQAGSLSGSPKPFSPQLSAPITTKTDKTSTTGSILNLNLDRSKAEMDLKELSESVQQQSTPVPLISPKRQIRSRFQLNLDKTIESCKAQLGINEISEDVYTAVEHSDSEDSEKSDSSDSEYISDDEQKSKNEPEDTEDKEGCQMDKEPSAVKKKPKPTNPVEIKEELKSTSPASEKADPGAVKDKASPEPEKDFSEKAKPSPHPIKDKLKGKDETDSPTVHLGLDSDSESELVIDLGEDHSGREGRKNKKEPKEPSPKQDVVGKTPPSTTVGSHSPPETPVLTRSSAQTSAAGATATTSTSSTVTVTAPAPAATGSPVKKQRPLLPKETAPAVQRVVWNSSSKFQTSSQKWHMQKMQRQQQQQQQQNQQQQPQSSQGTRYQTRQAVKAVQQKEITQSPSTSTITLVTSTQSSPLVTSSGSMSTLVSSVNADLPIATASADVAADIAKYTSKMMDAIKGTMTEIYNDLSKNTTGSTIAEIRRLRIEIEKLQWLHQQELSEMKHNLELTMAEMRQSLEQERDRLIAEVKKQLELEKQQAVDETKKKQWCANCKKEAIFYCCWNTSYCDYPCQQAHWPEHMKSCTQSATAPQQEADAEVNTETLNKSSQGSSSSTQSAPSETASASKEKETSAEKSKESGSTLDLSGSRETPSSILLGSNQGSDHSRSNKSSWSSSDEKRGSTRSDHNTSTSTKSLLPKESRLDTFWD
Consider B1, for which, under setting [1], the “Total (peptides)” value stood at 1 and the “Unique (peptides)” value is 1.

B2: MCM5 (protein, UniProt P33992 2-734, looked up)
DNA replication licensing …: SGFDDPGIFYSDSFGGDAQADEGQARKSQLQRRFKEFLRQYRVGTDRTGFTFKYRDELKRHYNLGEYWIEVEMEDLASFDEDLADYLYKQPAEHLQLLEEAAKEVADEVTRPRPSGEEVLQDIQVMLKSDASPSSIRSLKSDMMSHLVKIPGIIIAASAVRAKATRISIQCRSCRNTLTNIAMRPGLEGYALPRKCNTDQAGRPKCPLDPYFIMPDKCKCVDFQTLKLQELPDAVPHGEMPRHMQLYCDRYLCDKVVPGNRVTIMGIYSIKKFGLTTSRGRDRVGVGIRSSYIRVLGIQVDTDGSGRSFAGAVSPQEEEEFRRLAALPNVYEVISKSIAPSIFGGTDMKKAIACLLFGGSRKRLPDGLTRRGDINLLMLGDPGTAKSQLLKFVEKCSPIGVYTSGKGSSAAGLTASVMRDPSSRNFIMEGGAMVLADGGVVCIDEFDKMREDDRVAIHEAMEQQTISIAKAGITTTLNSRCSVLAAANSVFGRWDETKGEDNIDFMPTILSRFDMIFIVKDEHNEERDVMLAKHVITLHVSALTQTQAVEGEIDLAKLKKFIAYCRVKCGPRLSAEAAEKLKNRYIIMRSGARQHERDSDRRSSIPITVRQLEAIVRIAEALSKMKLQPFATEADVEEALRLFQVSTLDAALSGTLSGVEGFTSQEDQEMLSRIEKQLKRRFAIGSQVSEHSIIKDFTKQKYPEHAIHKVLQLMLRRGEIQHRMQRKVLYRLK
Turning to B2, under setting [1], the “Total (peptides)” value was 1 and the “Unique (peptides)” value was 1.

B3: BBX (protein, UniProt Q8WY36 1-941, looked up)
HMG box transcription factor …: MKGSNRNKDHSAEGEGVGKRPKRKCLQWHPLLAKKLLDFSEEEEEEDEEEDIDKVQLLGADGLEQDVGETEDDESPEQRARRPMNAFLLFCKRHRSLVRQEHPRLDNRGATKILADWWAVLDPKEKQKYTDMAKEYKDAFMKANPGYKWCPTTNKPVKSPTPTVNPRKKLWAFPSDSSRDLPSPKKAKTEEMPQLNFGMADPTQMGGLSMLLLAGEHALGTPEVSSGTCRPDVSESPELRQKSPLFQFAEISSSTSHSDASTKQCQTSALFQFAEISSNTSQLGGAEPVKRCGKSALFQLAEMCLASEGMKMEESKLIKAKESDGGRIKELEKGKEEKEIKMEKTDETRLQKEAEFEKSAKENLRDSKELRNFEALQIDDIMAIKMEDPKEIRKEELEEDHKCSHFPDFSYSASSKIIISDVPSRKDHMCHPHGIMIIEDPAALNKPEKLKKKKKKSKMDRHGNDKSTPKKTCKKRQSSESDIESVIYTIEAVAKGDWGIEKLGDTPRKKVRTSSSGKGSILDAKPPKKKVKSREKKMSKEKSSDTTKESRPPDFISISASKNISGETPEGIKAEPLTPMEDALPPSLSGQAKPEDSDCHRKIETCGSRKSERSCKGALYKTLVSEGMLTSLRANVDRGKRSSGKGNSSDHEGCWNEESWTFSQSGTSGSKKFKKTKPKEDCLLGSAKLDEEFEKKFNSLPQYSPVTFDRKCVPVPRKKKKTGNVSSEPTKTSKGPFQSQKKNLFHKIVSKYKHKKEKPNVPEKGSGDKWSNKQLFLDAIHPTEAIFSEDRNTMEPVHKVKNIPSIFNTPEPTTTQEPLVGSQKRKARKTKITHLVRTADGRVSPAGGTLDDKPKEQLQRSLPKATETDCNDKCSHNTEVGETRSSTPEMPAVSAFFSLAALAEVAAMENVHRGQRSTPLTHDGQPKEMPQAPVLISCADQ
For the molecule B3, the “Total (peptides)” value came to 1 under setting [1], 2 under setting [2] and 1 under setting [3]. Besides, the “Unique (peptides)” value is, setting by setting: under setting [1], 1; under setting [2], 2; under setting [3], 1.

B4: RING1 (protein, UniProt Q06587 1-406, looked up)
E3 ubiquitin-protein ligase …: MTTPANAQNASKTWELSLYELHRTPQEAIMDGTEIAVSPRSLHSELMCPICLDMLKNTMTTKECLHRFCSDCIVTALRSGNKECPTCRKKLVSKRSLRPDPNFDALISKIYPSREEYEAHQDRVLIRLSRLHNQQALSSSIEEGLRMQAMHRAQRVRRPIPGSDQTTTMSGGEGEPGEGEGDGEDVSSDSAPDSAPGPAPKRPRGGGAGGSSVGTGGGGTGGVGGGAGSEDSGDRGGTLGGGTLGPPSPPGAPSPPEPGGEIELVFRPHPLLVEKGEYCQTRYVKTTGNATVDHLSKYLALRIALERRQQQEAGEPGGPGGGASDTGGPDGCGGEGGGAGGGDGPEEPALPSLEGVSEKQYTIYIAPGGGAFTTLNGSLTLELVNEKFWKVSRPLELCYAPTKDPK
Regarding B4, under setting [1], the “Total (peptides)” value came out at 1 and the “Unique (peptides)” value is on record as 1. Further, under setting [2], the “Total (peptides)” value turned out to be 1 and the “Unique (peptides)” value is listed as 1. Under setting [4], the “Total (total peptides)” value is listed as 1 and the “Unique (unique peptides)” value is listed as 1.

B5: PATZ1 (protein, UniProt Q9HBE1 1-687, looked up)
POZ-, AT hook-, and zinc …: MERVNDASCGPSGCYTYQVSRHSTEMLHNLNQQRKNGGRFCDVLLRVGDESFPAHRAVLAACSEYFESVFSAQLGDGGAADGGPADVGGATAAPGGGAGGSRELEMHTISSKVFGDILDFAYTSRIVVRLESFPELMTAAKFLLMRSVIEICQEVIKQSNVQILVPPARADIMLFRPPGTSDLGFPLDMTNGAALAANSNGIAGSMQPEEEAARAAGAAIAGQASLPVLPGVDRLPMVAGPLSPQLLTSPFPSVASSAPPLTGKRGRGRPRKANLLDSMFGSPGGLREAGILPCGLCGKVFTDANRLRQHEAQHGVTSLQLGYIDLPPPRLGENGLPISEDPDGPRKRSRTRKQVACEICGKIFRDVYHLNRHKLSHSGEKPYSCPVCGLRFKRKDRMSYHVRSHDGSVGKPYICQSCGKGFSRPDHLNGHIKQVHTSERPHKCQTCNASFATRDRLRSHLACHEDKVPCQVCGKYLRAAYMADHLKKHSEGPSNFCSICNRGFSSASYLKVHVKTHHGVPLPQVSRHQEPILNGGAAFHCARTYGNKEGQKCSHQDPIESSDSYGDLSDASDLKTPEKQSANGSFSCDMAVPKNKMESDGEKKYPCPECGSFFRSKSYLNKHIQKVHVRALGGPLGDLGPALGSPFSPQQNMSLLESFGFQIVQSAFASSLVDPEVDQQPMGPEGK
Consider B5, for which, under setting [1], the “Total (peptides)” value is 1 and the “Unique (peptides)” value was found to be 1. Moreover, under setting [5], the “Total (total peptides)” value is listed as 3 and the “Unique (unique peptides)” value is on record as 3. Further, under setting [4], the “Total (total peptides)” value is 1 and the “Unique (unique peptides)” value was found to be 1.

B6: GTF3C3 (protein, UniProt Q9Y5Q9 2-886, looked up)
General transcription factor …: SGFSPELIDYLEGKISFEEFERRREERKTREKKSLQEKGKLSAEENPDDSEVPSSSGINSTKSQDKDVNEGETSDGVRKSVHKVFASMLGENEDDEEEEEEEEEEEEEEETPEQPTAGDVFVLEMVLNRETKKMMKEKRPRSKLPRALRGLMGEANIRFARGEREEAILMCMEIIRQAPLAYEPFSTLAMIYEDQGDMEKSLQFELIAAHLNPSDTEEWVRLAEMSLEQDNIKQAIFCYTKALKYEPTNVRYLWERSSLYEQMGDHKMAMDGYRRILNLLSPSDGERFMQLARDMAKSYYEANDVTSAINIIDEAFSKHQGLVSMEDVNIAAELYISNKQYDKALEIITDFSGIVLEKKTSEEGTSEENKAPENVTCTIPDGVPIDITVKLMVCLVHLNILEPLNPLLTTLVEQNPEDMGDLYLDVAEAFLDVGEYNSALPLLSALVCSERYNLAVVWLRHAECLKALGYMERAAESYGKVVDLAPLHLDARISLSTLQQQLGQPEKALEALEPMYDPDTLAQDANAAQQELKLLLHRSTLLFSQGKMYGYVDTLLTMLAMLLKVAMNRAQVCLISSSKSGERHLYLIKVSRDKISDSNDQESANCDAKAIFAVLTSVLTKDDWWNLLLKAIYSLCDLSRFQEAELLVDSSLEYYSFYDDRQKRKELEYFGLSAAILDKNFRKAYNYIRIMVMENVNKPQLWNIFNQVTMHSQDVRHHRFCLRLMLKNPENHALCVLNGHNAFVSGSFKHALGQYVQAFRTHPDEPLYSFCIGLTFIHMASQKYVLRRHALIVQGFSFLNRYLSLRGPCQESFYNLGRGLHQLGLIHLAIHYYQKALELPPLVVEGIELDQLDLRRDIAYNLSLIYQSSGNTGMAQTLLYTYCSI
As to B6, under setting [1], the “Total (peptides)” value was determined as 1 and the “Unique (peptides)” value turned out to be 1.

B7: SSR4 (protein, UniProt P51571 24-173, looked up)
Translocon-associated protein …: EACLEPQITPSYYTTSDAVISTETVFIVEISLTCKNRVQNMALYADVGGKQFPVTRGQDVGRYQVSWSLDHKSAHAGTYEVRFFDEESYSLLRKAQRNNEDISIIPPLFTVSVDHRGTWNGPWVSTEVLAAAIGLVIYYLAFSAKSHIQA
For B7, under setting [1], the “Total (peptides)” value is given as 1 and the “Unique (peptides)” value is recorded as 1. Further, under setting [5], the “Total (total peptides)” value turned out to be 3 and the “Unique (unique peptides)” value came to 3. Under setting [4], the “Total (total peptides)” value was 1 and the “Unique (unique peptides)” value was determined as 1. In addition, under setting [6], the “Total (peptides)” value is 6 and the “Unique (peptides)” value was determined as 4.
